# Test results taken from the supplement of paper PMC8728848.
# The list shows a part of the results.
# What was measured:
# Test in all cases: glycan array binding signal (z-score within array); higher = stronger binding
# Settings in all cases: glycan notation: IUPAC condensed, linker removed
# [1] = target: Fuc(a1-2)Gal6S(b1-3)GlcNAc6S
# How it was run: (§1)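 Arrays were curated from the Consortium for Functional Glycomics database, 3228 in total, and kept only where the protein sequence was available. Binding is expressed as a within-array Z-score. This score was averaged across arrays of the same protein sequence at different concentrations or buffers and across linkers, and negative values can be read as non-binding.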
# [2] = target: Fuc(a1-2)Gal6S(b1-4)Glc
# How it was run: as §1
# [3] = target: Fuc(a1-2)Gal6S(b1-4)Glc6S
# How it was run: as §1
# [4] = target: Fuc(a1-2)[Gal(a1-3)]Gal
# How it was run: as §1
# [5] = target: Fuc(a1-2)[Gal(a1-3)]Gal(b1-3)GalNAc
# How it was run: as §1
# [6] = target: Fuc(a1-2)[Gal(a1-3)]Gal(b1-3)GalNAc(b1-3)Gal(a1-4)Gal(b1-4)Glc
# How it was run: as §1
# [7] = target: Fuc(a1-2)[Gal(a1-3)]Gal(b1-3)GlcNAc
# How it was run: as §1
# [8] = target: Fuc(a1-2)[Gal(a1-3)]Gal(b1-3)GlcNAc(b1-2)Man(a1-3)[Fuc(a1-2)[Gal(a1-3)]Gal(b1-3)GlcNAc(b1-2)Man(a1-6)]Man(b1-4)GlcNAc(b1-4)GlcNAc
# How it was run: as §1
# [9] = target: Fuc(a1-2)[Gal(a1-3)]Gal(b1-3)GlcNAc(b1-2)Man(a1-3)[Fuc(a1-2)[Gal(a1-3)]Gal(b1-3)GlcNAc(b1-2)Man(a1-6)]Man(b1-4)GlcNAc(b1-4)[Fuc(a1-6)]GlcNAc
# How it was run: as §1
# [10] = target: Fuc(a1-2)[Gal(a1-3)]Gal(b1-3)GlcNAc(b1-3)GalNAc
# How it was run: as §1
# [11] = target: Fuc(a1-2)[Gal(a1-3)]Gal(b1-3)GlcNAc(b1-6)GalNAc
# How it was run: as §1
# [12] = target: Fuc(a1-2)[Gal(a1-3)]Gal(b1-4)Glc
# How it was run: as §1
# [13] = target: Fuc(a1-2)[Gal(a1-3)]Gal(b1-4)GlcNAc
# How it was run: as §1
# [14] = target: Fuc(a1-2)[Gal(a1-3)]Gal(b1-4)GlcNAc(b1-2)Man
# How it was run: as §1
# [15] = target: Fuc(a1-2)[Gal(a1-3)]Gal(b1-4)GlcNAc(b1-2)Man(a1-3)[Fuc(a1-2)[Gal(a1-3)]Gal(b1-4)GlcNAc(b1-2)Man(a1-6)]Man(b1-4)GlcNAc(b1-4)GlcNAc
# How it was run: as §1
# [16] = target: Fuc(a1-2)[Gal(a1-3)]Gal(b1-4)GlcNAc(b1-2)Man(a1-3)[Fuc(a1-2)[Gal(a1-3)]Gal(b1-4)GlcNAc(b1-2)Man(a1-6)]Man(b1-4)GlcNAc(b1-4)[Fuc(a1-6)]GlcNAc
# How it was run: as §1
# [17] = target: Fuc(a1-2)[Gal(a1-3)]Gal(b1-4)GlcNAc(b1-3)GalNAc
# How it was run: as §1
# [18] = target: Fuc(a1-2)[Gal(a1-3)]Gal(b1-4)GlcNAc(b1-3)[Fuc(a1-2)[Gal(a1-3)]Gal(b1-4)GlcNAc(b1-6)]GalNAc
# How it was run: as §1
# [19] = target: Fuc(a1-2)[Gal(a1-3)]Gal(b1-4)GlcNAc(b1-6)GalNAc
# How it was run: as §1
# [20] = target: Fuc(a1-2)[Gal(a1-3)]Gal(b1-4)[Fuc(a1-3)]Glc
# How it was run: as §1
# [21] = target: Fuc(a1-2)[Gal(a1-3)]Gal(b1-4)[Fuc(a1-3)]GlcNAc
# How it was run: as §1
# [22] = target: Fuc(a1-2)[Gal(a1-3)]Gal(b1-4)[Fuc(a1-3)]GlcNAc(b1-3)GalNAc
# How it was run: as §1
# [23] = target: Fuc(a1-2)[Gal(a1-4)]Gal(b1-4)GlcNAc
# How it was run: as §1
# [24] = target: Fuc(a1-2)[GalNAc(a1-3)]Gal
# How it was run: as §1
# [25] = target: Fuc(a1-2)[GalNAc(a1-3)]Gal(b1-3)GalNAc(a1-3)[Fuc(a1-2)]Gal(b1-4)GlcNAc
# How it was run: as §1
# [26] = target: Fuc(a1-2)[GalNAc(a1-3)]Gal(b1-3)GalNAc(b1-3)Gal(a1-4)Gal(b1-4)Glc
# How it was run: as §1
# [27] = target: Fuc(a1-2)[GalNAc(a1-3)]Gal(b1-3)GlcNAc
# How it was run: as §1
# [28] = target: Fuc(a1-2)[GalNAc(a1-3)]Gal(b1-3)GlcNAc(b1-2)Man(a1-3)[Fuc(a1-2)[GalNAc(a1-3)]Gal(b1-3)GlcNAc(b1-2)Man(a1-6)]Man(b1-4)GlcNAc(b1-4)GlcNAc
# How it was run: as §1
# [29] = target: Fuc(a1-2)[GalNAc(a1-3)]Gal(b1-3)GlcNAc(b1-2)Man(a1-3)[Fuc(a1-2)[GalNAc(a1-3)]Gal(b1-3)GlcNAc(b1-2)Man(a1-6)]Man(b1-4)GlcNAc(b1-4)[Fuc(a1-6)]GlcNAc
# How it was run: as §1
# [30] = target: Fuc(a1-2)[GalNAc(a1-3)]Gal(b1-3)GlcNAc(b1-3)GalNAc
# How it was run: as §1
# [31] = target: Fuc(a1-2)[GalNAc(a1-3)]Gal(b1-3)GlcNAc(b1-6)GalNAc
# How it was run: as §1
# [32] = target: Fuc(a1-2)[GalNAc(a1-3)]Gal(b1-4)Glc
# How it was run: as §1
# [33] = target: Fuc(a1-2)[GalNAc(a1-3)]Gal(b1-4)GlcNAc
# How it was run: as §1
# [34] = target: Fuc(a1-2)[GalNAc(a1-3)]Gal(b1-4)GlcNAc(b1-2)Man
# How it was run: as §1
# [35] = target: Fuc(a1-2)[GalNAc(a1-3)]Gal(b1-4)GlcNAc(b1-2)Man(a1-3)[Fuc(a1-2)[GalNAc(a1-3)]Gal(b1-4)GlcNAc(b1-2)Man(a1-6)]Man(b1-4)GlcNAc(b1-4)GlcNAc
# How it was run: as §1
# [36] = target: Fuc(a1-2)[GalNAc(a1-3)]Gal(b1-4)GlcNAc(b1-2)Man(a1-3)[Fuc(a1-2)[GalNAc(a1-3)]Gal(b1-4)GlcNAc(b1-2)Man(a1-6)]Man(b1-4)GlcNAc(b1-4)[Fuc(a1-6)]GlcNAc
# How it was run: as §1
# [37] = target: Fuc(a1-2)[GalNAc(a1-3)]Gal(b1-4)GlcNAc(b1-3)Gal(b1-4)GlcNAc
# How it was run: as §1
# [38] = target: Fuc(a1-2)[GalNAc(a1-3)]Gal(b1-4)GlcNAc(b1-3)Gal(b1-4)GlcNAc(b1-3)Gal(b1-4)GlcNAc
# How it was run: as §1
# [39] = target: Fuc(a1-2)[GalNAc(a1-3)]Gal(b1-4)GlcNAc(b1-3)GalNAc
# How it was run: as §1
# [40] = target: Fuc(a1-2)[GalNAc(a1-3)]Gal(b1-4)GlcNAc(b1-3)[Fuc(a1-2)[GalNAc(a1-3)]Gal(b1-4)GlcNAc(b1-6)]GalNAc
# How it was run: as §1
# [41] = target: Fuc(a1-2)[GalNAc(a1-3)]Gal(b1-4)GlcNAc(b1-6)GalNAc
# How it was run: as §1
# [42] = target: Fuc(a1-2)[GalNAc(a1-3)]Gal(b1-4)[Fuc(a1-3)]GlcNAc
# How it was run: as §1
# [43] = target: Fuc(a1-2)[GalNAc(a1-3)]Gal(b1-4)[Fuc(a1-3)]GlcNAc(b1-3)GalNAc
# How it was run: as §1
# [44] = target: Fuc(a1-2)[GalNAc(a1-4)]Gal(b1-4)GlcNAc
# How it was run: as §1
# [45] = target: Fuc(a1-2)[GalNAc(b1-3)]Gal
# How it was run: as §1
binder,measurement,setting,value
"MXA PilAct-eGFP (Myxococcus xanthus), Q59589 (protein) MRVSRFNPRNRGFTLIELMIVVAIIGILAAIAIPNFIKFQARSKQSEAKTNLKALYTAQKSFFSEKDRYSDFANEIGFAPERGNRYGYRVSAAAGDCEVRNAADLPVPAAGVPCISNDSFRFGANSAIDDPTPVVARFVPQGAAGWNTTLGVQPTIADCPNCNFFAGARGNADNEATFDDWVIAGFEGSGQVGPCSEAGNVASGTPYNTRNDVACDGAAQ",glycan array binding signal (z-score),[1],1.32
same,glycan array binding signal (z-score),[2],-0.651
same,glycan array binding signal (z-score),[3],-0.24
same,glycan array binding signal (z-score),[4],0.325
same,glycan array binding signal (z-score),[5],0.663
same,glycan array binding signal (z-score),[6],-1.12
same,glycan array binding signal (z-score),[7],0.255
same,glycan array binding signal (z-score),[8],0.25
same,glycan array binding signal (z-score),[9],-0.622
same,glycan array binding signal (z-score),[10],0.837
same,glycan array binding signal (z-score),[11],0.16
same,glycan array binding signal (z-score),[12],-1.07
same,glycan array binding signal (z-score),[13],0.335
same,glycan array binding signal (z-score),[14],-0.112
same,glycan array binding signal (z-score),[15],-0.026
same,glycan array binding signal (z-score),[16],1.29
same,glycan array binding signal (z-score),[17],0.793
same,glycan array binding signal (z-score),[18],-0.204
same,glycan array binding signal (z-score),[19],-0.135
same,glycan array binding signal (z-score),[20],-0.722
same,glycan array binding signal (z-score),[21],0.578
same,glycan array binding signal (z-score),[22],0.458
same,glycan array binding signal (z-score),[23],-0.628
same,glycan array binding signal (z-score),[24],-0.675
same,glycan array binding signal (z-score),[25],0.464
same,glycan array binding signal (z-score),[26],2.1
same,glycan array binding signal (z-score),[27],-0.53
same,glycan array binding signal (z-score),[28],-0.758
same,glycan array binding signal (z-score),[29],-0.984
same,glycan array binding signal (z-score),[30],-1.7
same,glycan array binding signal (z-score),[31],-0.703
same,glycan array binding signal (z-score),[32],-0.648
same,glycan array binding signal (z-score),[33],0.218
same,glycan array binding signal (z-score),[34],-1.06
same,glycan array binding signal (z-score),[35],3.39
same,glycan array binding signal (z-score),[36],0.22
same,glycan array binding signal (z-score),[37],-0.546
same,glycan array binding signal (z-score),[38],-0.12
same,glycan array binding signal (z-score),[39],0.716
same,glycan array binding signal (z-score),[40],0.574
same,glycan array binding signal (z-score),[41],0.269
same,glycan array binding signal (z-score),[42],-1.19
same,glycan array binding signal (z-score),[43],-0.577
same,glycan array binding signal (z-score),[44],0.023
same,glycan array binding signal (z-score),[45],-0.376

# Part of the list above, with tabs:
binder	measurement	setting	value
MXA PilAct-eGFP (Myxococcus xanthus), Q59589 (protein) MRVSRFNPRNRGFTLIELMIVVAIIGILAAIAIPNFIKFQARSKQSEAKTNLKALYTAQKSFFSEKDRYSDFANEIGFAPERGNRYGYRVSAAAGDCEVRNAADLPVPAAGVPCISNDSFRFGANSAIDDPTPVVARFVPQGAAGWNTTLGVQPTIADCPNCNFFAGARGNADNEATFDDWVIAGFEGSGQVGPCSEAGNVASGTPYNTRNDVACDGAAQ	glycan array binding signal (z-score)	[39]	0.716
same	glycan array binding signal (z-score)	[40]	0.574
